The record followed here is US9169295B2 (Bristol-Myers Squibb Company, priority 2010, dated 2015).

The data set is described as follows: general procedure: peptide synthesis; EDC / 1-hydroxy-7-azabenzotriazole / N-methylmorpholine. The conditions noted are these: cyclisation step, TFA salt, cyclic, sequence written open.

With Thia-V(d)AAAAY, the cyclisation yield was 22.3%. Moreover, the “final HPLC purity” value (Condition A) is more than 90%. Further, the “final HPLC purity” value (Condition B) was more than 91%. The “final HPLC purity” value (Condition C) was more than 99%.
